According to PubChem BioAssay AID540256 (National Center for Advancing Translational Sciences (NCATS), 2011):
Where “and” joins values, the source holds several entries; their conditions need not be identical. Equal entries are not always repeated. In all, about 300,000 compounds went through this assay and about 3,700 (1.2%) were called active. This list was built around the results that the source calls inconclusive (neither active nor inactive); the mix of calls is not that of the screen. Calls come from the whole dose curve; tested in HEK293 cells. A potency beside an inconclusive call is a rough fit, not a confirmed value.

experiment: qHTS for Inhibitors of binding or entry into cells for Lassa Virus; details: Lassa virus pseudotype entry inhibition, cell reporter; activity change, negative = inhibition: at 37.9 µM (top of the series) unless noted; note: nearly all actives have a fitted effect of over 50% in size
% is set by controls: 0 for no effect and ±100 for the full control effect; potency is the fitted concentration of half-maximal effect.

| Structure (SMILES) | Potency | activity change, negative = inhibition |
| --- | --- | --- |
| COc1cc2nc(Nc3ccc(C)c(Cl)c3)nc(N)c2cc1OC | inconclusive: 35.5 µM [inhibitor, single point] |  |
| COc1cc(C(=O)Nc2nc(C)c(Cc3ccc4c(c3)OCO4)s2)cc(OC)c1OC | inconclusive: 1.84 µM [inhibitor, full curve] |  |
| CC(C)c1nc(-c2ccc([N+](=O)[O-])cc2)cs1 |  | inactive: -2.36% |
| O=C(NC(Cc1ccccc1)C(=O)O)/C(=C/c1ccc(Br)cc1)NC(=O)c1ccc(Br)o1 (configuration not stated) | inconclusive: 12.6 µM [activator, single point] |  |
| CC(C#N)(Nc1ccc(Cl)cc1)c1cccnc1 (configuration not stated) | inconclusive: 5.01 µM [inhibitor, partial curve] |  |
| c1ccc(CCC2CCCCN2Cc2cn[nH]c2-c2cc3ccccc3o2)nc1 (configuration not stated) | inconclusive: 35.5 µM [inhibitor, single point] |  |
| COc1ccc(-c2coc3c2c(C)cc2oc(=O)c(C)c(C)c23)cc1 |  | inactive: 5.05% [at 46.1 µM] |
| CC(C)C(NC(=O)CN(c1cccc(F)c1)S(C)(=O)=O)C(C)C | inconclusive: 0.316 µM [activator, partial curve, poor fit] |  |
| CC(=O)N(CCC(Cc1ccccc1)c1ccc2c(c1)OCO2)Cc1ccccc1F (configuration not stated) | inconclusive: 35.5 µM [inhibitor, single point] |  |
| CC1CCC(Nc2ncnc3onc(-c4ccc(Cl)cc4)c23)CC1 (configuration not stated) |  | inactive: -8.32% [at 46.1 µM] |
| Cc1csc(SCC(=O)Nc2oc(C)c3c(C)n[nH]c(=O)c23)n1 |  | inactive: -4.67% |
| O=C1NC(=O)C2(Cc3cc([N+](=O)[O-])ccc3N3CCN(C(=O)c4ccccc4)CC32)C(=O)N1 (configuration not stated) | inconclusive: 0.355 µM [inhibitor, single point] |  |
| CC(=O)OCc1cnc(C)c2oc(=O)c(C(=O)Nc3ccc(C)cc3Cl)cc12 |  | inactive: 9.39% [at 46.1 µM] |
| COc1ccc(C(=O)c2ccc(Cl)cc2)c2ccccc12 | inconclusive: 17.8 µM [inhibitor, single point] |  |
| COc1ccc(NC(=O)C2=C(C)C(=O)OC23CCN(C(C)C)CC3)cc1Cl |  | inactive: 18.2% [at 46.1 µM] |
| Cc1cccc(N2CCN(C(=O)c3cc4n(n3)C(C(F)(F)F)CC(c3ccco3)N4)CC2)c1C (configuration not stated) | inconclusive: 17.8 µM [inhibitor, single point] |  |
| Cc1ccc(-c2nc3c(c(=O)[nH]c(=O)n3Cc3ccccc3)n2Cc2ccccc2)o1 | inconclusive: 10 µM [inhibitor, partial curve, poor fit] |  |
| CCOc1ccccc1-n1c(SCC(=O)Nc2ccc(CC)cc2)nc2n[nH]c(C)c2c1=N | active: 10 µM |  |
| CCOc1cc(C#N)c(NC(=O)c2cccnc2)cc1OCC | inconclusive: 0.447 µM [inhibitor, full curve, poor fit] |  |
| CCCCC(=O)OCC(=O)C1(O)Cc2c(O)c3c(c(O)c2C(OC2CC(NC(=O)C(F)(F)F)C(O)C(C)O2)C1)C(=O)c1c(OC)cccc1C3=O (configuration not stated) | inconclusive: 1.58 µM [inhibitor, partial curve, poor fit] |  |
| COCCCNC(=O)c1c(N)n(-c2ccc3c(c2)OCO3)c2nc3ccccc3nc12 |  | inactive: -1.42% |
| CC1CCN(c2nc3ccc(C(=O)O)cc3s2)CC1 | active: 0.631 µM |  |
| O=C(CSc1n[nH]c(=O)n1Cc1ccco1)Nc1ccccc1Cl |  | inactive: 2.72% |

3 entries from above, with each value named:
CCCCC(=O)OCC(=O)C1(O)Cc2c(O)c3c(c(O)c2C(OC2CC(NC(=O)C(F)(F)F)C(O)C(C)O2)C1)C(=O)c1c(OC)cccc1C3=O (configuration not stated)
  Potency: inconclusive: 1.58 µM [inhibitor, partial curve, poor fit]
COCCCNC(=O)c1c(N)n(-c2ccc3c(c2)OCO3)c2nc3ccccc3nc12
  activity change, negative = inhibition: inactive: -1.42%
CC1CCN(c2nc3ccc(C(=O)O)cc3s2)CC1
  Potency: active: 0.631 µM

Continued.

| Structure (SMILES) | Potency | activity change, negative = inhibition |
| --- | --- | --- |
| CCCCNC(=O)c1cc2c(=O)n3cccc(C)c3nc2s1 | inconclusive: 15.8 µM [inhibitor, single point] and inconclusive: 7.94 µM [inhibitor, partial curve, poor fit] |  |
| CC(C)(O)c1cc(=O)sc2nc3ccccc3n12 | inconclusive: 0.366 µM [activator, partial curve] |  |
| Cc1cccc(OCC(=O)Nc2ccc3nc(Nc4cccc(C(F)(F)F)c4)cc(C)c3c2)c1 |  | inactive: -1.13% [at 46.1 µM] |
| COc1ccc(C(C)=O)cc1CSc1nc2ccccc2c(=O)n1-c1ccccc1 | inconclusive: 10 µM [inhibitor, partial curve] |  |
| CCOC(=O)c1cnc2ccc(C)cc2c1OCc1cc(F)cc(F)c1 | inconclusive: 0.13 µM [activator, single point] |  |
| COc1ccc(-c2nnc(SCc3c(C)noc3C)n2N)cc1OC |  | inactive: -23% [at 14.3 µM] |
| COc1cccc(Nc2cc(C)c3ccccc3n2)c1 | inconclusive: 20 µM [activator, partial curve, poor fit] |  |
| COC(=O)c1[nH]c2ccc(C)cc2c1NC(=O)Oc1ccccc1 | inconclusive: 0.82 µM [activator, full curve, poor fit] |  |
| Cc1ccc(CNC(=O)c2oc3ccc(S(=O)(=O)N4CCC(C)CC4)cc3c2C)cc1 | inconclusive: 35.5 µM [inhibitor, single point] |  |
| CCOC(=O)c1nn(-c2ccccc2C)c2nc(Nc3ccccc3)cc(=O)n12 | inconclusive: 35.5 µM [inhibitor, single point] |  |
| CCOC(=O)c1ccc(N/C(=N\S(=O)(=O)c2ccccc2C)c2ccccc2)cc1 | inconclusive: 35.5 µM [inhibitor, single point] |  |
| Cc1noc(C)c1COC(=O)c1csc2c1CCCC2 | inconclusive: 25.1 µM [inhibitor, single point] |  |
| CCn1nc(NC(=O)c2ccccc2)c2cc3cccc(C)c3nc21 | inconclusive: 35.5 µM [inhibitor, single point] |  |
| Cc1ccc(C)c(S(=O)(=O)N2CCN(C(=O)c3cccn3C)CC2)c1 | inconclusive: 4.47 µM [inhibitor, full curve, poor fit] |  |
| COc1ccccc1OCCNc1cc(N2CCCCC2)ccc1[N+](=O)[O-] | inconclusive: 20 µM [inhibitor, single point] |  |
| COc1ccc(NC(=O)Cn2cnc3ccc(S(=O)(=O)N4CCC(C)CC4)cc3c2=O)cc1Cl |  | inactive: -8.09% [at 46.1 µM] |
| Cc1ccc(C(=O)Nc2ccc(Oc3cccc(C(F)(F)F)c3)nc2)cc1 | inconclusive: 14.1 µM [inhibitor, single point] |  |
| CC(C)CNC(=O)CN1C(=O)NC2(CCCc3ccccc32)C1=O (configuration not stated) |  | inactive: 0.82% [at 46.1 µM] |
| CCOc1ccc(NC(=O)CC2C(=O)N(c3ccccc3)C(=O)N2Cc2ccco2)cc1 (configuration not stated) | inconclusive: 0.126 µM [inhibitor, full curve, poor fit] |  |
| CC(=O)c1cc(-c2ccccc2)n(CCC(=O)Nc2ccc(C(C)C)cc2)c1C | inconclusive: 35.5 µM [inhibitor, single point] |  |
| Cc1ccc(-n2ncc(C(=O)N3CCN(Cc4ccccc4)CC3)c2C2CCN(C(=O)OC(C)(C)C)CC2)cc1 | inconclusive: 1.78 µM [inhibitor, partial curve, poor fit] |  |
| COc1ccc(N(CC(=O)NCCSCc2ccccc2C)S(=O)(=O)c2ccccc2)cc1 | inconclusive: 22.4 µM [inhibitor, single point] |  |
| Cn1c(=O)cc(OCCCC(=O)N2CCC3(CC2)OCCO3)c2ccccc21 |  | inactive: 3.12% |

| Structure (SMILES) | Potency | activity change, negative = inhibition |
| --- | --- | --- |
| O=C(C1CCCO1)N1CCN(C(=S)Nc2ccc(Cl)c(Cl)c2)CC1 (configuration not stated) | active: 10 µM |  |
| O=C(O)Cn1nnnc1SCC(=O)Nc1ccc(OC(F)(F)F)cc1 | inconclusive: 35.5 µM [activator, single point] |  |
| COc1ccccc1-c1nnc(SCC(N)=O)o1 | inconclusive: 12.6 µM [activator, partial curve, poor fit] |  |
| COc1ccccc1OCCn1c(C(C)Oc2ccccc2)nc2ccccc21 (configuration not stated) | inconclusive: 10 µM [inhibitor, partial curve, poor fit] |  |
| O=C(CSc1cccc2cccnc12)N/N=C/c1cccnc1 |  | inactive: -3.85% [at 46.1 µM] |
| Cc1cc(C)c(OCC(=O)Nc2nc(-c3ccccn3)cs2)c(C)c1 | inconclusive: 14.1 µM [inhibitor, single point] |  |
| Cc1cc(C)cc(C(=O)Nc2c(C(=O)Nc3ccccc3F)oc3ccccc23)c1 |  | inactive: -4.88% [at 46.1 µM] |
| Cc1oc(C(=O)O)cc1COc1ccc2c3c(c(=O)oc2c1)CCC3 |  | inactive: -4.85% |
| COc1ccc(NC(=O)c2cccc(S(=O)(=O)Nc3ccc(Br)cc3)c2)cn1 | inconclusive: 28.2 µM [inhibitor, single point] |  |
| CC(=O)c1cc2c(cc1N/C(=N/S(=O)(=O)c1ccccc1)c1ccc(Cl)cc1)OCO2 | inconclusive: 4.47 µM [inhibitor, single point] |  |
| CN1/C(=C/C2CC(=O)N(c3ccc([N+](=O)[O-])cc3)C2=O)C(C)(C)c2ccccc21 (configuration not stated) |  | inactive: -10.1% |
| O=C(Nc1cccc(-c2nc3ncccc3o2)c1)c1cc2ccccc2o1 |  | inactive: 2.62% |
| O=c1cc(-c2ccccc2)nc2nc(-c3ccco3)[nH]n12 | inconclusive: 14.1 µM [inhibitor, partial curve] |  |
| O=S(=O)(Nc1ncnc2sccc12)c1cccc(F)c1 | inconclusive: 35.5 µM [inhibitor, single point] |  |
| CC12CCCC(CC(=O)O)(C1)NC(=O)C2 (configuration not stated) | inconclusive: 35.5 µM [activator, single point] |  |
| COCCn1c(-c2ccc(OC)cc2)cnc1SCC(=O)Nc1cccc2ccccc12 | inconclusive: 18.3 µM [inhibitor, single point] |  |
| COc1ccc(CNC(=O)Nc2ccc(OC)cc2)cc1 |  | inactive: 22.8% |
| CCC(=O)N/N=C(\C)CC(=O)Nc1cc(Cl)ccc1C |  | inactive: 17% |
| COc1cc(C(=O)N2CCN(Cc3ccccc3C(F)(F)F)CC2)cc(OC)c1OC | inconclusive: 35.5 µM [inhibitor, single point] |  |
| C[C@]12CC[C@@H](O)CC1=CCC1C2CC[C@@]2(C)C1CC[C@@H]2N (some centres not stated) |  | inactive: -4.2% [at 46.1 µM] |
| Cc1ccc(S(=O)(=O)c2c(C)nn(C(C)(C)C)c2OC(=O)CC(C)C)cc1 | inconclusive: 12.6 µM [inhibitor, partial curve] |  |
